Data from PubChem BioAssay AID260 (DTP/NCI, 2004).
Several values for one entry are separate records, joined by “and”; a condition that tells them apart may be missing. Identical values can stand only once. Toxic doses and inconclusive results are not listed. Rule for the calls: active = survival T/C of 150% or more; inactive = T/C below 125% in these data.

Test system: CD2F1 mice, intracerebral L1210 leukemia, survival T/C
Assay: NCI In Vivo Anticancer Drug Screen. Data for tumor model L1210 Leukemia (intracerebral) in CD2F1 (CDF1) mice
Conditions: endpoint: median survival time, schedule: Q01DX005 (ip), vehicle: Klucel (hydroxypropylcellulose) (HPC), higher = longer survival
Description: The antitumor activity of compounds was measured in mice bearing transplantable tumors. Survival or tumor size were measured and the results are expressed as the measurement made in the treated group (T) divided by the measurement made in the vehicle treated control group (C). The tumor model used in this assay is L1210 Leukemia (intracerebral) in CD2F1 (CDF1) mice

Measured: T/C

COc1cc2c(c(OC)c1OC)-c1ccc(OC)c(=O)cc1[C@@H](N)CC2
inactive: dose: 4.0 mg/kg/injection 119 % of control and 108 % of control | dose: 8.0 mg/kg/injection 120 % of control and 109 % of control | dose: 16.0 mg/kg/injection 120 % of control
